From the supplement of paper PMC10735217 come the findings set out here.

This is one part of the list. Single values are uncertain here, since repeats match poorly.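 The human kidney-derived cells carry a stably integrated construct of eight TEAD-binding elements driving luciferase, read by luminescence in a drug-repurposing library screen. A compound counts as a hit when its signal is more than five robust Z scores above the plate mean.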

For this experiment, the system named is HEK293A TEAD-LUC reporter. The experiment can be described thus: TEAD-luciferase reporter activity (YAP activation), robust Z score vs plate; higher = stronger YAP/TEAD activation. Particulars: 24 h.

As for `O=[N+]([O-])c1ccc(O)c2ncccc12` [Pharmaprojects No. 3064], the TEAD-luciferase reporter activity runs as follows: (compound concentration: 200 nM) inactive: -0.267; (compound concentration: 2 uM) inactive: -0.932; (compound concentration: 10 uM) inactive: 3.14.
Regarding `O=c1[nH]c2ccccc2n1CCCN1CCN(C(c2ccccc2)c2ccccc2)CC1` [oxatomide], the TEAD-luciferase reporter activity reads like this: (compound concentration: 200 nM) inactive: -0.581; (compound concentration: 2 uM) inactive: -1.68; (compound concentration: 10 uM) inactive: 0.018.
For `CN(C)CCC(O)(c1ccccc1)c1ccccc1Cl` (stereo not drawn), in that order: inactive: 0.903, inactive: -0.433 and inactive: 2.42.
Turning to `CC[N+](CC)(CC)CCC(O)(c1ccccc1)C1CCCCC1` (stereo not drawn), the TEAD-luciferase reporter activity reads like this: (compound concentration: 200 nM) inactive: -0.763; (compound concentration: 2 uM) inactive: -1.04; (compound concentration: 10 uM) inactive: -1.81.
`O=C(C1CCCC1)N1CCC(C(=O)N2CCC(N3CCCC3=O)CC2)CC1`: the TEAD-luciferase reporter activity is inactive: -0.202 (compound concentration: 200 nM) and inactive: 2.56 (compound concentration: 10 uM).
As for `N[C@@H](Cc1ccc(O)c(O)c1)C(=O)O` [levodopa, Acorda Therapeutics], the TEAD-luciferase reporter activity (compound concentration: 2 uM) was inactive: -1.78.
In the case of `N[C@@H](Cc1ccc(O)c(O)c1)C(=O)O`, the TEAD-luciferase reporter activity is inactive: -0.707 (compound concentration: 200 nM) and inactive: -0.037 (compound concentration: 10 uM).
As for `CCCCc1c(-c2ccccc2F)[nH]c2nccnc12`, the TEAD-luciferase reporter activity is, setting by setting: (compound concentration: 200 nM) inactive: -0.948; (compound concentration: 2 uM) inactive: -0.909; (compound concentration: 10 uM) inactive: -0.9.
For the compound `CN(C)CCC(=O)N1Cc2ccccc2CC2(CCCCN2C)C1` (stereo not drawn), the TEAD-luciferase reporter activity was inactive: -0.174 (compound concentration: 200 nM) and active: 5.47 (compound concentration: 10 uM).
Consider `COc1ccc2c(c1OC)C(=O)O[C@@H]2[C@H]1c2c(cc3c(c2OC)OCO3)CCN1C` [noscapine, extended-release], for which the TEAD-luciferase reporter activity (compound concentration: 200 nM) was inactive: -2.98 and the TEAD-luciferase reporter activity (compound concentration: 10 uM) is inactive: 0.563.
In the case of `COc1ccc2c(c1OC)C(=O)O[C@@H]2[C@H]1c2c(cc3c(c2OC)OCO3)CCN1C` [noscapine], the TEAD-luciferase reporter activity (compound concentration: 2 uM) was inactive: -1.45.
For `C[C@H](CSC(=O)C(C)(C)C)C(=O)N(CC(=O)O)C1CCCC1`, the TEAD-luciferase reporter activity (compound concentration: 200 nM) was inactive: -2.31, the TEAD-luciferase reporter activity (compound concentration: 2 uM) was inactive: -0.0978 and the TEAD-luciferase reporter activity (compound concentration: 10 uM) was inactive: -0.0516.
The matching figures for `COc1cccc2c1c(NS(=O)(=O)c1ccc(Cl)s1)nn2Cc1cccc(CNC(=O)C(C)(C)O)c1`: inactive: -1.26, inactive: 2.68 and inactive: -0.717.
On to `CCOC(=O)N1CCN(c2ncnc3cc(OC)c(OC)cc23)CC1`, for which the TEAD-luciferase reporter activity is inactive: 2.85 (compound concentration: 200 nM), inactive: -0.639 (compound concentration: 2 uM) and inactive: -1.65 (compound concentration: 10 uM).
Turning to `Cc1ccc(S(=O)(=O)NC(=O)NC(C)Cc2ccccc2)cc1` (stereo not drawn) [Tosifen], the TEAD-luciferase reporter activity is inactive: -1.21 (compound concentration: 200 nM), inactive: -1.86 (compound concentration: 2 uM) and inactive: 0.462 (compound concentration: 10 uM).
As to `COc1ccc2c(=O)c3ccccc3oc2c1CN1CCCCC1` [mepixanox], the TEAD-luciferase reporter activity runs as follows: (compound concentration: 200 nM) inactive: 2.17; (compound concentration: 2 uM) inactive: 0.338; (compound concentration: 10 uM) inactive: 4.59.
In the case of `COc1ccccc1OCC(O)CNC(C)C` (stereo not drawn) [levomoprolol], the TEAD-luciferase reporter activity by setting is: (compound concentration: 200 nM) inactive: -1.02; (compound concentration: 2 uM) inactive: -1.86; (compound concentration: 10 uM) inactive: -1.41.
Consider `Cc1cc(OCC2(CONC(=N)N)CC2)cc(OS(=O)(=O)c2ccccc2S(C)(=O)=O)c1`, for which the TEAD-luciferase reporter activity is, setting by setting: (compound concentration: 200 nM) inactive: -0.471; (compound concentration: 2 uM) inactive: 1.35; (compound concentration: 10 uM) inactive: 1.3.
Consider `[NH3+][Pt-2]1([NH3+])[O]C(=O)C2(CCC2)C(=O)[O]1`, for which the TEAD-luciferase reporter activity (compound concentration: 2 uM) is inactive: -1.16.
As for `[NH3+][Pt-2]1([NH3+])[O]C(=O)C2(CCC2)C(=O)[O]1` [Carboplatin], the TEAD-luciferase reporter activity (compound concentration: 200 nM) was inactive: 0.601, the TEAD-luciferase reporter activity (compound concentration: 2 uM) is inactive: -2.54 and the TEAD-luciferase reporter activity (compound concentration: 10 uM) is inactive: 1.2.
On to `CC(C)NCC(O)COc1cccc2[nH]ccc12` (stereo not drawn), for which the TEAD-luciferase reporter activity was inactive: -0.271 (compound concentration: 200 nM) and inactive: 0.76 (compound concentration: 10 uM).
On to `CC(C)NCC(O)COc1cccc2[nH]ccc12` (stereo not drawn) [pindolol], for which the TEAD-luciferase reporter activity (compound concentration: 2 uM) was inactive: -1.58.
Regarding `O=C(CCCN1CCc2[nH]c3ccc(F)cc3c2C1)c1ccc(F)cc1`, the TEAD-luciferase reporter activity is inactive: -0.214 (compound concentration: 200 nM), inactive: -1.27 (compound concentration: 2 uM) and inactive: 0.759 (compound concentration: 10 uM).
For `CCCn1c(=O)c2[nH]c(C3CCC(=O)C3)nc2n(CCC)c1=O` (stereo not drawn), in that order: inactive: -1.55, inactive: 0.0057 and inactive: 2.95.
With `COc1cc(C2CCC(c3cc(OC)c(OC)c(OC)c3)S2)cc(OC)c1OC` (stereo not drawn), the TEAD-luciferase reporter activity reads like this: (compound concentration: 200 nM) inactive: -1.85; (compound concentration: 2 uM) inactive: -1.26; (compound concentration: 10 uM) inactive: 0.0282.
Consider `CC(O)(c1ccncc1)c1cnc(-c2ccc(F)cc2)s1` (stereo not drawn), for which the TEAD-luciferase reporter activity is, setting by setting: (compound concentration: 200 nM) inactive: -0.869; (compound concentration: 2 uM) inactive: 0.152; (compound concentration: 10 uM) inactive: -1.03.
Regarding `CN1C(=N)N(c2ccccc2)CC1=O`, the TEAD-luciferase reporter activity is inactive: -0.822 (compound concentration: 200 nM), inactive: -1.98 (compound concentration: 2 uM) and inactive: -0.567 (compound concentration: 10 uM).
In the case of `CN(C(=O)Nc1ccccc1)C1CCOc2ccccc21` (stereo not drawn), the TEAD-luciferase reporter activity (compound concentration: 200 nM) was inactive: -0.866 and the TEAD-luciferase reporter activity (compound concentration: 10 uM) was inactive: -0.755.
As for `COC(=O)[C@H](C/C=C/c1ccc(N(C)c2ncccn2)cc1)NC(=O)C1CCCCC1`, the TEAD-luciferase reporter activity by setting is: (compound concentration: 200 nM) inactive: -1.16; (compound concentration: 2 uM) inactive: -1.42; (compound concentration: 10 uM) inactive: -1.59.
